Results are given in words; binding and its absence hold for the method and conditions named. In cells and extracts the contact can be indirect. A result given as binding can be weak or reduced; the word gives no strength. For some assays here: Sequences can lack the tags named with a protein.

Amino acid sequences for entries named in this document (tags omitted). A change or cut given only in a name is not applied to a line headed by its entry.
UniProt P70182: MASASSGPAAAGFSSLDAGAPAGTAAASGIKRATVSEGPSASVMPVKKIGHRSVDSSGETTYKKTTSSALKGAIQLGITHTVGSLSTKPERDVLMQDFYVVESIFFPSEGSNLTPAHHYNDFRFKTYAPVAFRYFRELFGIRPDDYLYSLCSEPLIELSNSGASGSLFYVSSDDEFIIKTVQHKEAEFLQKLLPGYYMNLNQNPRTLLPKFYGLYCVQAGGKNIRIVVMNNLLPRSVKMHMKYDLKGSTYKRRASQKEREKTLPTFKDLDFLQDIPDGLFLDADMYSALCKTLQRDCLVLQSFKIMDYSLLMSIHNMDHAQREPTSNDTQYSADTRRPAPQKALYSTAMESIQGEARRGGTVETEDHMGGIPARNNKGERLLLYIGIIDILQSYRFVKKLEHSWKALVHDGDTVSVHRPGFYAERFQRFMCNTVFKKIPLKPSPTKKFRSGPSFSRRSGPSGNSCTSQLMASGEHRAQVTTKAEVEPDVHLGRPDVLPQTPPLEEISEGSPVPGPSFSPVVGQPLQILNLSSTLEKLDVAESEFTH
UniProt Q80SW1: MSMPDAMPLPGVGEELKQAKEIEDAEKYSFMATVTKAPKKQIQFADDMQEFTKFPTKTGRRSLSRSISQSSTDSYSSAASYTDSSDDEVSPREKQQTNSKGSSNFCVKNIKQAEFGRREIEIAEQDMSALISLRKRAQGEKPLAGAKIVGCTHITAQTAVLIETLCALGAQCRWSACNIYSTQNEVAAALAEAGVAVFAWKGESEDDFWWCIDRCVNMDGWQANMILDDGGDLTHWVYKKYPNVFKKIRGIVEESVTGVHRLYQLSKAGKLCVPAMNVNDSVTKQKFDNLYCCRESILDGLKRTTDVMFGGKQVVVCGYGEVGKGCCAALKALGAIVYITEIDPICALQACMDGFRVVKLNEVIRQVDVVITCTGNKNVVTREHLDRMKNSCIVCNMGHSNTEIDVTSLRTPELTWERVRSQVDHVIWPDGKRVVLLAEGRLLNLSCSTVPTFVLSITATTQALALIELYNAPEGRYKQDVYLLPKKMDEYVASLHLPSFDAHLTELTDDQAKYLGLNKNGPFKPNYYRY

For experiment [1], the target named is T1, myc-tagged phosphatidylinositol phosphate kinase type IIα (rat) (UniProt Q9R0I8).
T1 sequence: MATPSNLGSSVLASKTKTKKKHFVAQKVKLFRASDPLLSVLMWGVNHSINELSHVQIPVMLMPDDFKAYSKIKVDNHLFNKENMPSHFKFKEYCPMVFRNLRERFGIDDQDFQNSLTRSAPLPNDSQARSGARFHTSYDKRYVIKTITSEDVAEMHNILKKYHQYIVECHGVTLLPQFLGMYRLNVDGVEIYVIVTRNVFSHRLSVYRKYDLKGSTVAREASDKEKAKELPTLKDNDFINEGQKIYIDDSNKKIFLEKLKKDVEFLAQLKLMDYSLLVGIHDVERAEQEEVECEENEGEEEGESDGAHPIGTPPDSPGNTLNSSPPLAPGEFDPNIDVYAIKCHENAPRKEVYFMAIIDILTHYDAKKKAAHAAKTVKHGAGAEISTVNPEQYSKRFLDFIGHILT
Put plainly: co-IP; COS-7 cells co-transfected with HA-IRBIT and myc-PIPK constructs; lysis buffer 10 mM Hepes pH 7.4, 100 mM NaCl, 2 mM EDTA, 1% Nonidet P-40; precipitated with anti-HA or anti-myc antibody and protein G-Sepharose at 4°C; Western blot.

The target in experiment [2] is myc-tagged phosphatidylinositol phosphate kinase type Iα (mouse) (UniProt P70182). Described as above.

On to “HA-IRBIT site-directed mutant of Thr82 (from UniProt Q80SW1)”, for which, in experiment [1], the binding entry is “binds”.

Regarding “HA-IRBIT site-directed mutant of Ser66 (from UniProt Q80SW1)”, the binding result in experiment [1] and in experiment [2] was “binds” throughout. For “HA-IRBIT site-directed mutant of Ser77 (from UniProt Q80SW1)”, the binding entry in experiment [2] is “binds”. In the case of “HA-IRBIT site-directed mutant of Ser71 (from UniProt Q80SW1)”, the binding result in experiment [1] and in experiment [2] was “binds weakly” throughout. Take “HA-IRBIT site-directed mutant of Ser68 (from UniProt Q80SW1)”: the binding entry in experiment [1] and in experiment [2] was “binds weakly” each time.

Regarding “HA-IRBIT site-directed mutant of Ser70 (from UniProt Q80SW1)”, the binding result in experiment [1] and in experiment [2] was “binds” each time. As for “HA-IRBIT site-directed mutant of Ser74 (from UniProt Q80SW1)”, in experiment [1], the binding result was “binds”. As for “HA-IRBIT site-directed mutant of Ser84 (from UniProt Q80SW1)”, in experiment [1], the binding entry was “binds”. Take “HA-IRBIT site-directed mutant of Ser80 (from UniProt Q80SW1)”: the binding entry in experiment [1] and in experiment [2] was “binds” each time.

The values above are taken from PMC4624786.
